Source: patent US20230416362A1

B1: 1G3 scFv phage clone (scFv, V domains shown)
VH: DIQLVQSGGGLVKPGGSLRLSCAASGYTFTNYWIGWVRQTPGKGLEWVGDIYPGSSFTNSNEKFKGRFTISADKSKNTAYLQMNSLRAEDTAVYYCARDMVGYWYFDVWGQGTLVTVSS
VL: DIVLTQSPATLSASLGERATLSCSASSSVSYIHWYQQKPGQAPKLLIYTTSNLASGVPSRFSGSGSGTDFTLTISSLEAEDFATYYCHQWSRYPTFGGGTKLEIK
B2: 3H2 scFv phage clone (scFv, V domains shown)
VH: B1 VH with D99I, M100R, V101L
VL: B1 VL
B3: 2F1 scFv phage clone (scFv, V domains shown)
VH: B1 VH with D99V, M100I
VL: B1 VL

Biological target: recombinant mouse TIGIT IgV domain (mouse)
Experiment: phage display panning on biotinylated mouse TIGIT IgV domain

Row | Binder | binding
1 | B1 | binds
2 | B2 | binds
3 | B3 | binds

Substitutions are numbered along the chain they refer to. Results are given in words; binding and its absence hold for the method and conditions named. Binding can be weak; no strength is given.
